# Experimental data: the supplement of paper PMC12067093, “Discovery and optimisation of a covalent ligand for TRIM25 and its application to targeted protein ubiquitination” (Chemical Science, 2025)
# Amino acid sequences for entries named in this document (tags omitted). A change or cut given only in a name is not applied to a line headed by its entry.
# UniProt Q96E09: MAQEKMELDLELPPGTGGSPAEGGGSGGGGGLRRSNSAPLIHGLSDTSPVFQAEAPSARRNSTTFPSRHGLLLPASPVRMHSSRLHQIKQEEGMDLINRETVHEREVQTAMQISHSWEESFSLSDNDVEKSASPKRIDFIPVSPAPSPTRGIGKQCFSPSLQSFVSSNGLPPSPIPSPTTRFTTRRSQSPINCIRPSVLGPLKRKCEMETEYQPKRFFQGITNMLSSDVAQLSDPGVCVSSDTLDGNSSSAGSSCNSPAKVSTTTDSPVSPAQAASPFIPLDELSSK
# UniProt Q96A65: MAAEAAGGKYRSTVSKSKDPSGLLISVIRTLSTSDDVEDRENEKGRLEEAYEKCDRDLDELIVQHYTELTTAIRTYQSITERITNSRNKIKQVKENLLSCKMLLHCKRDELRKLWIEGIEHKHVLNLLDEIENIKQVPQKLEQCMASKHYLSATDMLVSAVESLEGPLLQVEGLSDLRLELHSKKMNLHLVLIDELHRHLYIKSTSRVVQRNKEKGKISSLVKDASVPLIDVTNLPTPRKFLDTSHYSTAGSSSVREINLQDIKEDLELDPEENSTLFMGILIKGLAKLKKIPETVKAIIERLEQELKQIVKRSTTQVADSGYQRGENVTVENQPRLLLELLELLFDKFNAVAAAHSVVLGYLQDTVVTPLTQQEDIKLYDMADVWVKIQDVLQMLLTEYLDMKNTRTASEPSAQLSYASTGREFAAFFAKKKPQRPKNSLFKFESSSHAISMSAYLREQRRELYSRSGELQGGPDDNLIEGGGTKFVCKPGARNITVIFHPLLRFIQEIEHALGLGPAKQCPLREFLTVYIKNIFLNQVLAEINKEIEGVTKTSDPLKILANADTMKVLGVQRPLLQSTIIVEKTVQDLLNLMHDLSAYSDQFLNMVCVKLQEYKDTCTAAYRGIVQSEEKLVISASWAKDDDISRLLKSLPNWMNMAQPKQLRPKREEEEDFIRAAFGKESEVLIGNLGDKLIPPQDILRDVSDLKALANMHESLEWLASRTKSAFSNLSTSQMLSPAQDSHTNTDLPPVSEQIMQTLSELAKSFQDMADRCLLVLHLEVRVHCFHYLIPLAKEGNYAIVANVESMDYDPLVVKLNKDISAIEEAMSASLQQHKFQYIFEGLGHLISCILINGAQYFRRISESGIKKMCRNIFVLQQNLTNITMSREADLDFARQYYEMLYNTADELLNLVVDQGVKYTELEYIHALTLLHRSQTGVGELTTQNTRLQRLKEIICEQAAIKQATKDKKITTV
# UniProt P16930: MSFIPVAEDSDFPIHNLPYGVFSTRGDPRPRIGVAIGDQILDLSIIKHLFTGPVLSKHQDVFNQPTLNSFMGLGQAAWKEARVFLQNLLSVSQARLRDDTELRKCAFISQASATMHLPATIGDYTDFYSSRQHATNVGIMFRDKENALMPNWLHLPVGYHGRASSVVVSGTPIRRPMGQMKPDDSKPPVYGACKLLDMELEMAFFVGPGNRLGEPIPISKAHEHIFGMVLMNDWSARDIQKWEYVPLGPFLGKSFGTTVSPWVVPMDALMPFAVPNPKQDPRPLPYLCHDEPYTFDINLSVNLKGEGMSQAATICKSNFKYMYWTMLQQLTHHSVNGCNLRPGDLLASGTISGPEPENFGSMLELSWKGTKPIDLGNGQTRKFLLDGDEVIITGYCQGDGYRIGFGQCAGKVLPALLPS
# UniProt Q16134: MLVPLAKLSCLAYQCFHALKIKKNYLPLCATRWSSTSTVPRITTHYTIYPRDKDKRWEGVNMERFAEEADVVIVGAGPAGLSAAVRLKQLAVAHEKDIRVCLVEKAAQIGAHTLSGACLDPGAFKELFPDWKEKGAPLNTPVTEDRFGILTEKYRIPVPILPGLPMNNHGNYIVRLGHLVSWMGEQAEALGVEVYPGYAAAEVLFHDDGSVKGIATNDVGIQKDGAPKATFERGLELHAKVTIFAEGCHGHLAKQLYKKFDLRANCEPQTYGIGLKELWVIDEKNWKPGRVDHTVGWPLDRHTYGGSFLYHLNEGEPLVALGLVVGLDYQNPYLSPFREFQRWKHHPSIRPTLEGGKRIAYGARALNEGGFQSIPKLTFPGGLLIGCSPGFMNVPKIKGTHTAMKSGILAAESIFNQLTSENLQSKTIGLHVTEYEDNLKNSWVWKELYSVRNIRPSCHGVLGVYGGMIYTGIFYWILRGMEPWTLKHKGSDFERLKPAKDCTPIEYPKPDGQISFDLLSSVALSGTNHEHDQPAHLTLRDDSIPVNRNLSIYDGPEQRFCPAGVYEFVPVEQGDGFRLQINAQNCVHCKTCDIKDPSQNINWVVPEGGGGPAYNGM
# UniProt Q06265, whole entry, looked up: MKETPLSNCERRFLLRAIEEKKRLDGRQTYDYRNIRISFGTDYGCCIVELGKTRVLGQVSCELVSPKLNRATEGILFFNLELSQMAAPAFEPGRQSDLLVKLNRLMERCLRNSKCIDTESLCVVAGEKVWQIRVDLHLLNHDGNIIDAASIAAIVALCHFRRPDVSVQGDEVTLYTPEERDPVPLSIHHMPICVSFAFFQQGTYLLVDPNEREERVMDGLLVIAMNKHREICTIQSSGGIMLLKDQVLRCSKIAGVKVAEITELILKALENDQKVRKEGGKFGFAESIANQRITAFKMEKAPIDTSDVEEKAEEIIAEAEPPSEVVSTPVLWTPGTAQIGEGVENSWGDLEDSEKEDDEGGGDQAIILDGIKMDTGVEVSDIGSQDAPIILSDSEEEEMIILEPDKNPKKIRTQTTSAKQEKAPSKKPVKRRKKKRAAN
# UniProt Q8IV48: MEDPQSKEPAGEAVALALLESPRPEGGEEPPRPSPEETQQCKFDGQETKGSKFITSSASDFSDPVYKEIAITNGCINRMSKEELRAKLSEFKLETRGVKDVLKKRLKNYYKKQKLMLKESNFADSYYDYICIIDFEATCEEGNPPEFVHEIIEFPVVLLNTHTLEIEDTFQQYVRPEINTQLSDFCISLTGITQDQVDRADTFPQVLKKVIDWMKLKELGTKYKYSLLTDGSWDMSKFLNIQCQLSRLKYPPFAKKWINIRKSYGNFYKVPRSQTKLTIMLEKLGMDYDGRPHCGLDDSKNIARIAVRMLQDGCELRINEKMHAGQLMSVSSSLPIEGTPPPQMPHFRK
# UniProt Q6SJ93: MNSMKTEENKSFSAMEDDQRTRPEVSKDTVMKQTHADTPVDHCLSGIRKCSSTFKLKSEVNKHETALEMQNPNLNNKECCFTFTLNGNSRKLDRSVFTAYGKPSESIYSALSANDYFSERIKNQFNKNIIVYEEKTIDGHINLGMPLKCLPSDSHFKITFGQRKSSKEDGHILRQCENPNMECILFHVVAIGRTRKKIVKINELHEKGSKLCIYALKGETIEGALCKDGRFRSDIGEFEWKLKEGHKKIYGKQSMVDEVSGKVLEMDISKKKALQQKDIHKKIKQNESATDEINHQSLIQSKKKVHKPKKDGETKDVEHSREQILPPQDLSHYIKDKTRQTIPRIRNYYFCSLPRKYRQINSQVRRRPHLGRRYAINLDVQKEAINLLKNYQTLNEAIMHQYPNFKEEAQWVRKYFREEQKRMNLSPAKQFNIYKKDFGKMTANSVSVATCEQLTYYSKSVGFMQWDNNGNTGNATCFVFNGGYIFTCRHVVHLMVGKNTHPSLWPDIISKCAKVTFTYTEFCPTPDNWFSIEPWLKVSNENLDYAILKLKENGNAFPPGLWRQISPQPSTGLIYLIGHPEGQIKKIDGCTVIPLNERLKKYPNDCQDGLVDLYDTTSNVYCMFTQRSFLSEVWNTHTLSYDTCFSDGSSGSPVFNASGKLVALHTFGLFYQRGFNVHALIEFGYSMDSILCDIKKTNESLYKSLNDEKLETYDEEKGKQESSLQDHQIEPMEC
# UniProt Q96EK7: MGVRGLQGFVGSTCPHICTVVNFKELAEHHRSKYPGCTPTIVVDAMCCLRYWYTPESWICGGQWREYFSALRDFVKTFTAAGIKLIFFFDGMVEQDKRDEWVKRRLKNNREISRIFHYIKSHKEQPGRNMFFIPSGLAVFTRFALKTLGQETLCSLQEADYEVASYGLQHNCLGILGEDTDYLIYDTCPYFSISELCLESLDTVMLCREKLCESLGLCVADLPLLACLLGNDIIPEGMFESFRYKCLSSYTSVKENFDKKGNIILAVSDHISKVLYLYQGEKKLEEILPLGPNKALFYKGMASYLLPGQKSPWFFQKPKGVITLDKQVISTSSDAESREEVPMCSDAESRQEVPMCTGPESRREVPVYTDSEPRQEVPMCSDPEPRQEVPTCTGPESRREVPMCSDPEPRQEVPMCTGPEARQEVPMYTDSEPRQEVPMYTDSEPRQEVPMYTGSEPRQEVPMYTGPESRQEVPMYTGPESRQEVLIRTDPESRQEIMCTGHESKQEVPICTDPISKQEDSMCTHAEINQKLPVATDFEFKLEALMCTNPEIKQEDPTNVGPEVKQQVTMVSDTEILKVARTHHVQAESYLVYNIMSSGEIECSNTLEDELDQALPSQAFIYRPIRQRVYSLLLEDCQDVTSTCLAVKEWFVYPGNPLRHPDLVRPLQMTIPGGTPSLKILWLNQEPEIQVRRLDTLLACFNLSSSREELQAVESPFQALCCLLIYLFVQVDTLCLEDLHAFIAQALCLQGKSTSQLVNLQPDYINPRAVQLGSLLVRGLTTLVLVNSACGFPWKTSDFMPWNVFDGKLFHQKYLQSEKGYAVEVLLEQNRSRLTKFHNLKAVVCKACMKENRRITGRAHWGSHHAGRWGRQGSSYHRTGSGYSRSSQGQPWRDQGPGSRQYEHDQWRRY
# UniProt Q9BS26: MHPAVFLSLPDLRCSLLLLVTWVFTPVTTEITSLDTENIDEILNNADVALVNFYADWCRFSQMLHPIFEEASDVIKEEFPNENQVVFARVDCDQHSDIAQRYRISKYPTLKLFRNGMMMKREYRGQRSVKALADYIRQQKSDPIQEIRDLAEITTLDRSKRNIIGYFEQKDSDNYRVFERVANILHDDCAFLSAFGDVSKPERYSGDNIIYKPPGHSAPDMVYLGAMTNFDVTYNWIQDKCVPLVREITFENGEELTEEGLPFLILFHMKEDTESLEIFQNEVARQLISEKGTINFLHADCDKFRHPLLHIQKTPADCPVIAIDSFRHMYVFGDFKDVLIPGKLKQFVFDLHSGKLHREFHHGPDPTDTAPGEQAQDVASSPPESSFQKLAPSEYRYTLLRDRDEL
# UniProt Q9Y3B2, whole entry, looked up: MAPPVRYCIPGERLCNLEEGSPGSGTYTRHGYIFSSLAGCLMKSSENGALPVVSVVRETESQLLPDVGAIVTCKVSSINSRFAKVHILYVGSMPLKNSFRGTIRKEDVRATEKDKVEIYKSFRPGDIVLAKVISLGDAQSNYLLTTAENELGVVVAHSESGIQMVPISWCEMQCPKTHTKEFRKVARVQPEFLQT
# UniProt O95571: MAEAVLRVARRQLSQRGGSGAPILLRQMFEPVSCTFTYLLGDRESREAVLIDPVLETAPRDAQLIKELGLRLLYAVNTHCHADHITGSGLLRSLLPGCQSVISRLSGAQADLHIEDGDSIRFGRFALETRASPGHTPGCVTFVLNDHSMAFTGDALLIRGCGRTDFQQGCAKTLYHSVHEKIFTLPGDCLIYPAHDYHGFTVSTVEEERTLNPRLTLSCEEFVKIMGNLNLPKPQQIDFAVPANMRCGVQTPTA
# UniProt Q92889: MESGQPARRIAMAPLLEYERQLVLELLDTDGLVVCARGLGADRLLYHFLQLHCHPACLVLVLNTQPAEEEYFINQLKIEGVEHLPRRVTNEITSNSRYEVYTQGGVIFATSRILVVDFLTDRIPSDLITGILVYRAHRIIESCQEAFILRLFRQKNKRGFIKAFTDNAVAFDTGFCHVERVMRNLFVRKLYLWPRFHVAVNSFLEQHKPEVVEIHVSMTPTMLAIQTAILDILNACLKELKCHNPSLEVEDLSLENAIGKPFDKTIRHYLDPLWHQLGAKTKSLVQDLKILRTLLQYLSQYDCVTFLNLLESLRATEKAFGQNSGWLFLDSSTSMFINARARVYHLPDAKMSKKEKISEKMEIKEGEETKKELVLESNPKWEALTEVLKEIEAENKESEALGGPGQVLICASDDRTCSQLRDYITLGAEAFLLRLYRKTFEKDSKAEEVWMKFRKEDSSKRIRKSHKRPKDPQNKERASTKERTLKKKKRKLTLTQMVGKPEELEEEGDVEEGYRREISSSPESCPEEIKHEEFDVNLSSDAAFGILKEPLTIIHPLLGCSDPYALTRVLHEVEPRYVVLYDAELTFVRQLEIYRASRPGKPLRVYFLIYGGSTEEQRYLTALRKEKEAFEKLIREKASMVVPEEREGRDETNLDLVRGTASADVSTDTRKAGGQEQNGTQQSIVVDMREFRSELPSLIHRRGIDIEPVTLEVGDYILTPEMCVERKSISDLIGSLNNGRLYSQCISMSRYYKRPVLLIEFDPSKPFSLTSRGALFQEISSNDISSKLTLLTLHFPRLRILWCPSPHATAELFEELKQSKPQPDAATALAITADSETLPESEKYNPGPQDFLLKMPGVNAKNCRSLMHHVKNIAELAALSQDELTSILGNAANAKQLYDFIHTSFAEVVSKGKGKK
# The list shows a part of the results.
# Compound: Cc1cc(ccc1-c1ccccc1)C(=O)N1CCCN(CC1)C(=O)CCl [compound 10]
# Test: probe-labelled cysteine peptide fold change vs DMSO (competition) (log2 fold change); higher = less target engagement (more negative = stronger competition)
# Settings: THP-1, incubation time: 4 h
# 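Note: competitive profiling in live THP-1 cells: cysteine peptides tagged with an iodoacetamide desthiobiotin (IA-DTB) probe, intensity after compound treatment relative to DMSO-treated cells.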
Target,probe-labelled cysteine peptide fold change (10 µM),probe-labelled cysteine peptide fold change (50 µM)
EXOC3_O60645_161_KLMDLECSR (UniProt O60645),-0.119,-0.681
FAM122A_Q96E09_193_SQSPINCIRPSVLGPLK (UniProt Q96E09),-0.132,-0.161
EXOC4_Q96A65_957_EIICEQAAIK (UniProt Q96A65),-0.297,0.000253
FAH_P16930_396_FLLDGDEVIITGYCQGDGYR (UniProt P16930),-0.176,-0.00781
ETFDH_Q16134_387_LTFPGGLLIGCSPGFMNVPK (UniProt Q16134),-0.209,-0.0769
EXOSC9_Q06265_232_HREICTIQSSGGIMLLK (UniProt Q06265),-0.0954,-0.14
FAM129A_Q9BZQ8_194_FSALLSDCVR (UniProt Q9BZQ8),0.00902,0.0738
ERO1B_Q86YB8_130_ELEDCEQANK (UniProt Q86YB8),-0.316,-0.0572
FAH_P16930_193_PMGQMKPDDSKPPVYGACK (UniProt P16930),0.114,-0.233
FAM120A_Q9NZB2_1088+1103_TCNTNPHLNALSTDSACR (UniProt Q9NZB2),-0.667,-0.612
ERI1_Q8IV48_75_EIAITNGCINR (UniProt Q8IV48),-0.21,-0.588
ETV6_P41212_8_SETPAQCSIK (UniProt P41212),-0.338,-0.304
EXOSC9_Q06265_61_VLGQVSCELVSPK (UniProt Q06265),0.171,0.0301
EXOC1_Q9NV70_304_GIEACTNAADALLQCMNVALRPGHDLLLAVK (UniProt Q9NV70),0.164,0.203
FAM111B_Q6SJ93_351_NYYFCSLPR (UniProt Q6SJ93),-0.123,-0.127
EXOC4_Q96A65_54_CDRDLDELIVQHYTELTTAIR (UniProt Q96A65),-0.124,-0.108
EXOSC5_Q9NQT4_33_HFACEQNLLSRPDGSASFLQGDTSVLAGVYGPAEVK (UniProt Q9NQT4),-0.0294,0.228
ESD_P10768_181_SVSAFAPICNPVLCPWGK (UniProt P10768),-0.0639,-0.0992
ETS1_P14921_31_VDLELFPSPDMECADVPLLTPSSK (UniProt P14921),0.255,-0.0133
FAM120B_Q96EK7_404_EVPMCSDPEPR (UniProt Q96EK7),-0.371,-0.274
ESYT1_Q9BSJ8_635_GSSVDAPPRPCHTTPDSQFGTEHVLR (UniProt Q9BSJ8),-0.0314,-0.203

# Shown bar-delimited: entries from further up
Target | probe-labelled cysteine peptide fold change (10 µM) | probe-labelled cysteine peptide fold change (50 µM)
ETFDH_Q16134_387_LTFPGGLLIGCSPGFMNVPK (UniProt Q16134) | -0.209 | -0.0769
EXOSC9_Q06265_232_HREICTIQSSGGIMLLK (UniProt Q06265) | -0.0954 | -0.14
FAM111B_Q6SJ93_351_NYYFCSLPR (UniProt Q6SJ93) | -0.123 | -0.127

# (further entries)

Target,probe-labelled cysteine peptide fold change (10 µM),probe-labelled cysteine peptide fold change (50 µM)
FAM102B_Q5T8I3_201_SASVPDELGACGHSR (UniProt Q5T8I3),-0.256,-0.248
EXT2_Q93063_85_LPADSPIPERGDLSCR (UniProt Q93063),-0.0425,-0.335
ERP44_Q9BS26_189_VANILHDDCAFLSAFGDVSKPER (UniProt Q9BS26),-0.0221,0.278
EXOSC9_Q06265_46_ISFGTDYGCCIVELGK (UniProt Q06265),0.118,-0.0998
EXOSC8_Q96B26_89_GYVVPNVDLPPLCSSR (UniProt Q96B26),-0.0137,-0.11
FAM120B_Q96EK7_700_RLDTLLACFNLSSSR (UniProt Q96EK7),0.0425,0.00481
FAF2_Q96CS3_194_NTLCAPEVISLINTR (UniProt Q96CS3),-0.00497,0.0786
EXOSC1_Q9Y3B2_40_HGYIFSSLAGCLMK (UniProt Q9Y3B2),0.118,-0.0583
FAH_P16930_193_RPMGQMKPDDSKPPVYGACK (UniProt P16930),0.00353,-0.318
ETF1_P62495_335_YVLHCQGTEEEK (UniProt P62495),0.0286,0.0462
EXOSC6_Q5RKV6_248_LGLEGCQR (UniProt Q5RKV6),-0.00681,0.0231
F11R_Q9Y624_74_LVCYNNK (UniProt Q9Y624),-0.135,-0.355
EXOC2_Q96KP1_586_CVMATLQHTAEEIKR (UniProt Q96KP1),0.236,0.137
ETF1_P62495_302_YCFGVEDTLK (UniProt P62495),0.229,0.192
F2_P00734_564_RGDACEGDSGGPFVMK (UniProt P00734),-0.124,-0.158
ETHE1_O95571_219_LTLSCEEFVK (UniProt O95571),-0.0882,-0.0389
EXOSC5_Q9NQT4_102_NTCEAVVLGTLHPR (UniProt Q9NQT4),0.112,0.423
F2_P00734_391_KSPQELLCGASLISDR (UniProt P00734),-0.34,-0.399
ERCC4_Q92889_723_GIDIEPVTLEVGDYILTPEMCVER (UniProt Q92889),0.0379,-0.0411
EXOC1_Q9NV70_837_HLCEEENLLQVVWHSMQDEFIR (UniProt Q9NV70),0.321,0.405
